For at least one compound, name, drawing or mass did not settle the structure.
Test system: yeast Saccharomyces cerevisiae
Assay: Programmed death in yeast induced by amiodarone (colony survival)
Assay type: cell-based
Conditions: 80 μM amiodarone; TPP tested from 100 nM to 400 nM
From the text: Amiodarone (a calcium channel blocker) causes the death of the yeast Saccharomyces cerevisiae which by a number of features resembles apoptosis in higher eukaryotes. In the cells, amiodarone induces activation of a cascade of events leading to formation of reactive oxygen species and subsequent cell death. […] A source of formation of reactive oxygen species induced by amiodarone is a hyperpolarized mitochondrium.
The following compounds of structure (I) (SKQ1, SKQ3, and C12TPP) were selected for this study. […] Then a compound of structure (I) or mock and 80 μM amiodarone were added to the cell suspension. Cells were incubated for 1 hr at 30° C. and afterwards transferred to solid YPD medium containing 2% bactoagar. The number of colonies was counted after 2 days of incubation on solid medium. 100% survival corresponds to the number of colonies from zero time-point transferred to solid medium prior to addition of amiodarone.

c1ccc([P+](c2ccccc2)(c2ccccc2)c2ccccc2)cc1 [TPP, tetraphenylphosphonium, reference compound]
survival of yeast cells (protective effect, in words): does not have a significant effect
